{"source": "patent US6482856B1", "about": "“Method and composition for treating mammalian disease caused by inflammatory response” (Cellular Sciences, Inc., priority 1995, dated 2002)", "origin": "cited, not measured here", "key": {"stunned myocardium": {"system": "stunned myocardium", "settings": "cited from earlier work"}, "heart": {"system": "heart", "settings": "in vivo; cited from earlier work"}}, "note": "For at least one compound, name, drawing or mass did not settle the structure."}
{"molecule": "CC(=O)C(=O)O", "note": "[Pyruvate, pyruvate]", "values": [{"measurement": "inotropic effect", "setting": "stunned myocardium", "result": "positive inotropic effect"}, {"measurement": "left ventricular pressure and work parameter", "setting": "heart", "result": "relative stabilization"}, {"measurement": "resumption of spontaneous beating of the heart and restoration of normal rates and pressure development", "setting": "heart", "result": "improves"}, {"measurement": "size of infarctions", "setting": "heart", "result": "reduce"}]}
